Measurements: the supplement of paper PMC10849652
Some of the results follow.

Amino acid sequences for entries named in this document (tags omitted). A change or cut given only in a name is not applied to a line headed by its entry.
UniProt P04040: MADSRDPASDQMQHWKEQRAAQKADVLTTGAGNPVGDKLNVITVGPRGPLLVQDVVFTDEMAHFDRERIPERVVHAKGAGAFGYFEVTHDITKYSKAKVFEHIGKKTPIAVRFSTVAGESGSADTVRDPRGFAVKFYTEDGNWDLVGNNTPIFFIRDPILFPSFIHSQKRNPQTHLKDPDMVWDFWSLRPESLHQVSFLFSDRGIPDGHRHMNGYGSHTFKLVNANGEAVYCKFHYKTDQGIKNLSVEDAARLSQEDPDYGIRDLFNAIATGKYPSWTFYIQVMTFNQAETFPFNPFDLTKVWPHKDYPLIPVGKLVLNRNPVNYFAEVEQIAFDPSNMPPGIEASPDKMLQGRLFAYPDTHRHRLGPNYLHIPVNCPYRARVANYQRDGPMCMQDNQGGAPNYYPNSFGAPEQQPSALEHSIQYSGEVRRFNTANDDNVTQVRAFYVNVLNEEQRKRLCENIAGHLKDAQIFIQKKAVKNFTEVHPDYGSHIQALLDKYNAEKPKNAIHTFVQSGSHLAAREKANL
UniProt P55212: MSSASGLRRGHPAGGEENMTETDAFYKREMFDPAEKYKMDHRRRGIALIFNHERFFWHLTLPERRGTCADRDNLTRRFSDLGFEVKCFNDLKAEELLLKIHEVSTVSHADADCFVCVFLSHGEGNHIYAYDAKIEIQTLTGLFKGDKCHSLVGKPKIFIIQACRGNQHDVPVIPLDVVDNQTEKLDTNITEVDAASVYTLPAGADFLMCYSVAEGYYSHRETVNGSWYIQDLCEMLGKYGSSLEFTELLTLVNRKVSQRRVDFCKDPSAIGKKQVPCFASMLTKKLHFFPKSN
UniProt Q13191, whole entry, looked up: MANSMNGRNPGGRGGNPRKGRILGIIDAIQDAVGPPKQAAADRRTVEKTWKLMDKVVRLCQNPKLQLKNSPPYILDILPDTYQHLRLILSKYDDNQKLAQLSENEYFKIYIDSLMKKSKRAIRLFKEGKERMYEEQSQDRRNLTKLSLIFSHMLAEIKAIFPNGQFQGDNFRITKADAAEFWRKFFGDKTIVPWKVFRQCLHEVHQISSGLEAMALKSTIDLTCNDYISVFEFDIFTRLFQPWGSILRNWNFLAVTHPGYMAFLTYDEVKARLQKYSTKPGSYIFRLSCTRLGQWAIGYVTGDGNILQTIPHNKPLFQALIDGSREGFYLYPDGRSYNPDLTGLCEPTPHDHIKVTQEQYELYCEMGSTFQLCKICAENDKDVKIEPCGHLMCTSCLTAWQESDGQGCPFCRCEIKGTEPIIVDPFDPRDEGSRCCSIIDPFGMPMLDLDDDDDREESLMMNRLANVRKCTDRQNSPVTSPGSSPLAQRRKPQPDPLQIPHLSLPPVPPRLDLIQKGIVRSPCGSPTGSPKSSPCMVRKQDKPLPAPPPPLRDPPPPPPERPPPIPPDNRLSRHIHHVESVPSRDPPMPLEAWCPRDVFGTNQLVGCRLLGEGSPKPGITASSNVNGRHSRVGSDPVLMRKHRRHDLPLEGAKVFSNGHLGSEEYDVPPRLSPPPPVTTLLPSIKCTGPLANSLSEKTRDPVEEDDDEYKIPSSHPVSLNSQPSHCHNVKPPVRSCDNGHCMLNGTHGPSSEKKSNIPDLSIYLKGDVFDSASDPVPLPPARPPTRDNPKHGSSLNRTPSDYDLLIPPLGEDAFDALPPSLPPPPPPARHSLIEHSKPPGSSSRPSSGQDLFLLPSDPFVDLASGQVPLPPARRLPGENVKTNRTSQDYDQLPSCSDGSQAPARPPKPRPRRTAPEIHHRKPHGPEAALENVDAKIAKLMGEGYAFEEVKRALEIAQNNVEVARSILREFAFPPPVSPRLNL
UniProt O15234, whole entry, looked up: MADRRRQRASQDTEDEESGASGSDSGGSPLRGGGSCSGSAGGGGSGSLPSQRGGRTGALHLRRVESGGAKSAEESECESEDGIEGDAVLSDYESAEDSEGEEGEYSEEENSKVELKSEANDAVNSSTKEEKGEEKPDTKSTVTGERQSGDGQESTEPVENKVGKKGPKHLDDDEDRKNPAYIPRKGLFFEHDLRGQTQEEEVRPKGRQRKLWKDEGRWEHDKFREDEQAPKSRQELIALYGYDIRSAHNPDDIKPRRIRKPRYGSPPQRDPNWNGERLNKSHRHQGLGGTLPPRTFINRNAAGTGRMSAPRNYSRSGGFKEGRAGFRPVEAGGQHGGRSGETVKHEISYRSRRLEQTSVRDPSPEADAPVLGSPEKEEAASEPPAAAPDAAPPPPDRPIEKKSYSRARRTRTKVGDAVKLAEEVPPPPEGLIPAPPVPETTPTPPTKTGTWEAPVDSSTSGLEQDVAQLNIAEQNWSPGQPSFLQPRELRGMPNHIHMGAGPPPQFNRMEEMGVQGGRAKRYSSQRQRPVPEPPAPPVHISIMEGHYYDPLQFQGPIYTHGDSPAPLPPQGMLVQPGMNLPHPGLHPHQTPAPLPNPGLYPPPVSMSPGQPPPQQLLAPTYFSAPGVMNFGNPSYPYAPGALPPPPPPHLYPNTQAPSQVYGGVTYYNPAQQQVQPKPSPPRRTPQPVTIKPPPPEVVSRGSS
UniProt O75909: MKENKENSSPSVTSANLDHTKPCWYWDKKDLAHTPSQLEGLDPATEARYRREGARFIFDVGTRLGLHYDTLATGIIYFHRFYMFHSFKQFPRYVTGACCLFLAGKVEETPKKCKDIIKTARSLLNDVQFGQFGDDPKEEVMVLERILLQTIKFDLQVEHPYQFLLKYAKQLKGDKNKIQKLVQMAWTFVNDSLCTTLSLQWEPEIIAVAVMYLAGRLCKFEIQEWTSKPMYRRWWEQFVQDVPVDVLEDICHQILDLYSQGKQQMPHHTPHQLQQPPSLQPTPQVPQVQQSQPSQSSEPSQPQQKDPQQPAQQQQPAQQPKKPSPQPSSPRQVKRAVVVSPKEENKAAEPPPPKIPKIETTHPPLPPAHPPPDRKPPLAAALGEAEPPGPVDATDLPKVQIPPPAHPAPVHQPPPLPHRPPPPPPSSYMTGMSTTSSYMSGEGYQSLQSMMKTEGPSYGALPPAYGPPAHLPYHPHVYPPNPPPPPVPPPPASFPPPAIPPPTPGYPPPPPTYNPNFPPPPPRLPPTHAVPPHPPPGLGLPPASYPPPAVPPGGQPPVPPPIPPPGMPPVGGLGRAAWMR
UniProt Q13951, whole entry, looked up: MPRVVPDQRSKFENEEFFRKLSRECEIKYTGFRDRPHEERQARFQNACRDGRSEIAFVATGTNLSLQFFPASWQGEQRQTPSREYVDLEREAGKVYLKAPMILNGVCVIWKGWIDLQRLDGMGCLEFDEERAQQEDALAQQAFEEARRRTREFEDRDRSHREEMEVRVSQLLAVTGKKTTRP
UniProt O60826, whole entry, looked up: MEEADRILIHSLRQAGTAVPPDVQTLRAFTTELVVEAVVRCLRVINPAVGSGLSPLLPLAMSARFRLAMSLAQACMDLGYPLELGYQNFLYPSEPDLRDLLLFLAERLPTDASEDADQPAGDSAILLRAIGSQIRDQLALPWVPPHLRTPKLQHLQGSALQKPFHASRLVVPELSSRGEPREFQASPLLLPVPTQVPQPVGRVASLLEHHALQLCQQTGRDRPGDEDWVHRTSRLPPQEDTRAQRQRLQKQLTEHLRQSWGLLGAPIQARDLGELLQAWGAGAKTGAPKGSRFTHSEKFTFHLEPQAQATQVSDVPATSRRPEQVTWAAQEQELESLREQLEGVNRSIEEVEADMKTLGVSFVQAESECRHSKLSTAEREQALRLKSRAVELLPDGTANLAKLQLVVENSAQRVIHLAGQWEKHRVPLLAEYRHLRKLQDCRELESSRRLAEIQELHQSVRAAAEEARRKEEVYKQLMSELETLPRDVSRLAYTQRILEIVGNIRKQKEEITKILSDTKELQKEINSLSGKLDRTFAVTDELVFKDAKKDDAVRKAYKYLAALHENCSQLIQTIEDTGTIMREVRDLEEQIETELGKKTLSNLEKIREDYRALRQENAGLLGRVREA
UniProt Q8N163, whole entry, looked up: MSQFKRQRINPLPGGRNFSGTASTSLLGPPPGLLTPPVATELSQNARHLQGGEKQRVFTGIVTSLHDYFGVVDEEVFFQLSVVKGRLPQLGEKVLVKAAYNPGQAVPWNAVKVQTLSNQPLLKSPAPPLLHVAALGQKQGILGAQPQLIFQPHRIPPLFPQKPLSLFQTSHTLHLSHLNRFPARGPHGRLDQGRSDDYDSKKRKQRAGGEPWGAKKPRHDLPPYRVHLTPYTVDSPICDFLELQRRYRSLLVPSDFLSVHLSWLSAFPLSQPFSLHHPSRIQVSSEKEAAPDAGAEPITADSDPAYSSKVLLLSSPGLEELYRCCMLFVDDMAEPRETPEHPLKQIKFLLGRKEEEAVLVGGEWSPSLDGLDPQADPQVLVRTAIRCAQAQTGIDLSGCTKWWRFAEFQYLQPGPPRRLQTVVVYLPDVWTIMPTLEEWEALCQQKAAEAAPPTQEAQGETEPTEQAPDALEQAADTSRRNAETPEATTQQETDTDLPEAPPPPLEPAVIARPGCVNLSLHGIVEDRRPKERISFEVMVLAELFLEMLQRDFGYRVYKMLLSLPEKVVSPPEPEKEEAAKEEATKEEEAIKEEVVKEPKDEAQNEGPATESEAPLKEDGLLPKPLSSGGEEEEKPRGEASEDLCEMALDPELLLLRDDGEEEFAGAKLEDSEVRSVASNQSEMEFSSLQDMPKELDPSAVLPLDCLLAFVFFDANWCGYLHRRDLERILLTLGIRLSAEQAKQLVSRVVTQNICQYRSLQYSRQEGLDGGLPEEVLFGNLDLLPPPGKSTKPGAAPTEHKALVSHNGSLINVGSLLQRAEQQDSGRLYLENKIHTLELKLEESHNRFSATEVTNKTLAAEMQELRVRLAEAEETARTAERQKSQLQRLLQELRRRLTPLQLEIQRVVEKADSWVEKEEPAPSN
UniProt P55211: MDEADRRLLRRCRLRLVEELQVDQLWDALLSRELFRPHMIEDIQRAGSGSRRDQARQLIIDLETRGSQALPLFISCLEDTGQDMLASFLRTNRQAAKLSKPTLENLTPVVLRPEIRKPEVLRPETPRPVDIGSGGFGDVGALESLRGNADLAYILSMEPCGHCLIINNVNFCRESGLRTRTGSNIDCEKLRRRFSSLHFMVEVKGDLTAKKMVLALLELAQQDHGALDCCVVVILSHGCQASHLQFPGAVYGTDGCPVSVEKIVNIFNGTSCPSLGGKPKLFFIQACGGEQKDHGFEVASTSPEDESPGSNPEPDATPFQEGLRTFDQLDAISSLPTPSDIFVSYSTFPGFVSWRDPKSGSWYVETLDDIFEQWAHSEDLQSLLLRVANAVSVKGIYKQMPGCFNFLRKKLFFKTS
UniProt Q9Y3X0: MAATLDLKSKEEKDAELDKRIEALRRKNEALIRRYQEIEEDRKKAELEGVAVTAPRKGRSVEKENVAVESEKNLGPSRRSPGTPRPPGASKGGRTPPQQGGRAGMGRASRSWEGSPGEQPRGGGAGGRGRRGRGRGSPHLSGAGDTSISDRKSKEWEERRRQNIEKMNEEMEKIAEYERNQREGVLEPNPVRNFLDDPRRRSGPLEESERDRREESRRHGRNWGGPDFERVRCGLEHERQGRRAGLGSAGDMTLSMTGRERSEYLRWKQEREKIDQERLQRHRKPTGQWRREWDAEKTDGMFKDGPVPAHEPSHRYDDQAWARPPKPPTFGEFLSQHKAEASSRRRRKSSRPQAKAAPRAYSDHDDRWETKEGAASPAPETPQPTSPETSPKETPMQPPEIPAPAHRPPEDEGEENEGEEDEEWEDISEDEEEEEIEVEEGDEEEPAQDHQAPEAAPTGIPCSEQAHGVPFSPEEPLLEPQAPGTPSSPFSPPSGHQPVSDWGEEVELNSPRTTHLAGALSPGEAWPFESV
UniProt Q9Y2V2: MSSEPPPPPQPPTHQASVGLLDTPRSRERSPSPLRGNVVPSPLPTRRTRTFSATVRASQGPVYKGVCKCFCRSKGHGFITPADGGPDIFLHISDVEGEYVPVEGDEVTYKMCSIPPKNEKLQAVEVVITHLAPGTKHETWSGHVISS
UniProt Q96NT0: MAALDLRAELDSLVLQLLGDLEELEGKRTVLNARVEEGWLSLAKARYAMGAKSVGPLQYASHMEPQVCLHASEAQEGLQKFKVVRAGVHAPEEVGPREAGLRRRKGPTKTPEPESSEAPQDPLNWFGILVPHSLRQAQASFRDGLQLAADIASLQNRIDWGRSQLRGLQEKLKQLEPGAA
UniProt Q7Z6B0: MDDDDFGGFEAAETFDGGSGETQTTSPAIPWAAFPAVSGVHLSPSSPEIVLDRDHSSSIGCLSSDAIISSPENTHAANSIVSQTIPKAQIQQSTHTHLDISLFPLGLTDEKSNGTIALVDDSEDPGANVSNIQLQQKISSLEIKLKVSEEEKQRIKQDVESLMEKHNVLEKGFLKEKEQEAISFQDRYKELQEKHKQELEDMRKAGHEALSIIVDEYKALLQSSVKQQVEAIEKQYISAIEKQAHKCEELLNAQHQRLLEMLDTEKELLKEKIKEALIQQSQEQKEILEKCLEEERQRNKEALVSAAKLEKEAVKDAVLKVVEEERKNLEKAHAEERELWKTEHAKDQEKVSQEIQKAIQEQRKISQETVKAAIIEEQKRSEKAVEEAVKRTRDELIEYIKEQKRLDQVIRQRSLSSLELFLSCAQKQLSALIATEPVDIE

Experiments:
Experiment in all cases: log2 fold change, soluble protein after heating vs DMSO (PISA); higher = thermal stabilisation; K562 lysate, 10 uM; active = over 0.2 and 3.5 SD of the protein, either way, in both replicates (recomputed)
ibrutinib = compound: C=CC(=O)N1CCC[C@@H](n2nc(-c3ccc(Oc4ccccc4)cc3)c3c(N)ncnc32)C1 [ibrutinib]
Summary of the method: (§1)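 To prepare the extract, K562 pellets were dounce-homogenised in PBS pH 7.4 with 1 mM MgCl2, giving crude material at 1 mg/mL protein. This was treated with 10 μM compound for 30 min, then heated in aliquots for 3 min over 48°C-58°C before pooling and addition of NP-40 to 0.5% at 4°C. Centrifugation at 21,000xg for 90 min left soluble protein in the supernatant, which TMTpro 16plex LC-MS/MS quantified with equalised channel sums. Results are log-two fold changes in thermal stability compared with solvent controls, from duplicates.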

[1] = compound: CC(=O)c1cnc2ccc(-c3cc(Cl)c(O)c(Cl)c3)nc2c1N[C@H]1CC[C@H](CN(C)C)CC1
Summary of the method: as §1

ralimetinib = compound: CC(C)(C)Cn1c(N)nc2ccc(-c3[nH]c(C(C)(C)C)nc3-c3ccc(F)cc3)nc21 [ralimetinib]
Summary of the method: as §1

[2] = compound: CC(C)(O)CC(=O)NCCn1ccc2ncnc(Nc3ccc(Oc4cccc(C(F)(F)F)c4)c(Cl)c3)c21
Summary of the method: as §1

[3] = compound: CC(C)C1=C2N=C(C=C(N2N=C1)NCC3=CC=CC=C3)NCCCCCCN
Summary of the method: as §1

[4] = compound: CC1=C(C(CC(=O)N1)C2=CC=C(C=C2)C(F)(F)F)C(=O)NC3=C(C=C4C(=C3)C=NN4)F
Summary of the method: as §1

[5] = compound: CC1=C(C2=C(C=C1)C(=O)C3=CC=CC=C3N2CCCN)C
Summary of the method: as §1

[6] = compound: CC1=C(C=C(C=C1)NC(=O)C2=CC(=CC=C2)C(C)(C)C#N)NC3=CC4=C(C=C3)N=CN(C4=O)C
Summary of the method: as §1

[7] = compound: CC1=C(C=C(C=C1)NC(=O)C2=CC(=CC=C2)N(C)C)NC(=O)C3=CC=C(C=C3)O
Summary of the method: as §1

[8] = compound: CC1=CC=C(C=C1)SC2=C3C=C(SC3=CN=C2)C(=O)N
Summary of the method: as §1

Measured: log2 fold change

CCDC124 (UniProt Q96CT7)
inactive: ibrutinib 0.045 | [1] -0.013 | ralimetinib 0.003 | [2] 0.005 | [3] -0.013 | [4] 0.007 | [5] 0.049 | [6] -0.022 | [7] -0.002 | [8] -0.014

CASP7 isoform 3 (UniProt P55210)
inactive: ibrutinib 0 | [1] 0.125 | ralimetinib -0.118 | [2] -0.012 | [3] -0.123 | [4] -0.029 | [5] -0.161 | [6] 0.043 | [7] -0.124 | [8] -0.052

CAT (UniProt P04040)
inactive: ibrutinib 0.015 | [1] 0.004 | ralimetinib 0 | [2] -0.018 | [3] 0.031 | [4] -0.027 | [5] 0 | [6] 0.01 | [7] -0.022 | [8] -0.004

Quoted at random: 2 entries already listed.
CASP7 isoform 3 (UniProt P55210)
inactive: ibrutinib 0 | [1] 0.125 | ralimetinib -0.118 | [2] -0.012 | [3] -0.123 | [4] -0.029 | [5] -0.161 | [6] 0.043 | [7] -0.124 | [8] -0.052

CCDC124 (UniProt Q96CT7)
inactive: ibrutinib 0.045 | [1] -0.013 | ralimetinib 0.003 | [2] 0.005 | [3] -0.013 | [4] 0.007 | [5] 0.049 | [6] -0.022 | [7] -0.002 | [8] -0.014

Further entries

CASKIN2 (UniProt Q8WXE0)
inactive: ibrutinib 0.041 | [1] -0.029 | ralimetinib -0.004 | [2] 0.014 | [3] 0.023 | [4] -0.025 | [5] -0.001 | [6] 0.002 | [7] -0.022 | [8] -0.018

CASP6 (UniProt P55212)
inactive: ibrutinib -0.029 | [1] 0.034 | ralimetinib 0.074 | [2] 0.011 | [3] -0.042 | [4] -0.012 | [5] 0.005 | [6] -0.003 | [7] -0.02 | [8] -0.008

CBLB (UniProt Q13191)
inactive: ibrutinib 0.003 | [1] 0.005 | ralimetinib -0.008 | [2] -0.026 | [3] -0.015 | [4] 0.079 | [5] -0.052 | [6] 0.075 | [7] 0.159 | [8] -0.014

CASC3 (UniProt O15234)
inactive: ibrutinib 0.055 | [1] 0.004 | ralimetinib -0.024 | [2] 0.017 | [3] 0.001 | [4] 0.015 | [5] -0.023 | [6] -0.036 | [7] 0.002 | [8] -0.02

CBR4 (UniProt Q8N4T8)
inactive: ibrutinib 0.065 | [1] 0.171 | ralimetinib -0.021 | [2] -0.056 | [3] 0.01 | [4] 0.083 | [5] -0.143 | [6] 0.001 | [7] -0.084 | [8] 0.077

CBX4 (UniProt O00257)
inactive: ibrutinib 0.034 | [1] -0.08 | ralimetinib -0.078 | [2] -0.194 | [3] 0.014 | [4] -0.012 | [5] -0.07 | [6] -0.01 | [7] -0.038 | [8] -0.141

CCNK isoform 4 (UniProt O75909)
inactive: ibrutinib 0.09 | [1] 0.007 | ralimetinib 0.042 | [2] -0.01 | [3] 0.012 | [4] 0.015 | [5] -0.017 | [6] 0.024 | [7] -0.037 | [8] -0.007

CBX3 (UniProt Q13185)
inactive: ibrutinib -0.02 | [1] -0.001 | ralimetinib -0.001 | [2] -0.017 | [3] 0.127 | [4] -0.04 | [5] -0.012 | [6] -0.037 | [7] -0.017 | [8] 0.001

CAST isoform 6 (UniProt P20810)
inactive: ibrutinib -0.007 | [1] -0.011 | ralimetinib -0.009 | [2] -0.025 | [3] -0.01 | [4] -0.004 | [5] -0.02 | [6] -0.032 | [7] 0.021 | [8] -0.036

CBFB (UniProt Q13951)
inactive: ibrutinib -0.026 | [1] -0.036 | ralimetinib -0.035 | [2] 0.001 | [3] -0.024 | [4] 0.016 | [5] 0.005 | [6] 0.008 | [7] -0.087 | [8] -0.03

CCDC22 (UniProt O60826)
inactive: ibrutinib 0.006 | [1] 0.033 | ralimetinib -0.005 | [2] -0.045 | [3] -0.009 | [4] 0.005 | [5] 0.001 | [6] -0.01 | [7] 0.025 | [8] -0.027

CCAR2 (UniProt Q8N163)
inactive: ibrutinib 0.025 | [1] -0.019 | ralimetinib 0.012 | [2] -0.006 | [3] -0.018 | [4] 0 | [5] 0.01 | [6] 0.003 | [7] 0.015 | [8] -0.005

CCDC58 (UniProt Q4VC31)
inactive: ibrutinib 0.044 | [1] -0.004 | ralimetinib -0.028 | [2] 0.048 | [3] 0.015 | [4] -0.026 | [5] 0.04 | [6] -0.052 | [7] 0.006 | [8] 0.019

CCDC88C (UniProt Q9P219)
inactive: ibrutinib -0.073 | [1] -0.094 | ralimetinib 0.005 | [2] -0.037 | [3] -0.19 | [4] -0.1 | [5] -0.108 | [6] 0.002 | [7] 0.064 | [8] -0.099

CASP9 (UniProt P55211)
inactive: ibrutinib -0.039 | [1] -0.06 | ralimetinib 0.04 | [2] -0.06 | [3] -0.017 | [4] 0.01 | [5] -0.003 | [6] -0.01 | [7] 0.011 | [8] -0.012

CCNY (UniProt Q8ND76)
inactive: ibrutinib 0 | [1] -0.013 | ralimetinib -0.046 | [2] -0.099 | [3] 0.014 | [4] -0.036 | [5] 0.023 | [6] 0.063 | [7] 0.078 | [8] 0.001

CCDC97 (UniProt Q96F63)
inactive: ibrutinib 0.023 | [1] 0.088 | ralimetinib -0.011 | [2] -0.035 | [3] 0.001 | [4] -0.012 | [5] 0.02 | [6] -0.027 | [7] 0.017 | [8] 0.048

CCT7 (UniProt Q99832)
inactive: ibrutinib -0.024 | [1] -0.001 | ralimetinib -0.004 | [2] 0.016 | [3] 0.013 | [4] -0.022 | [5] -0.025 | [6] -0.007 | [7] -0.002 | [8] 0.008

CCDC9 (UniProt Q9Y3X0)
inactive: ibrutinib 0.065 | [1] -0.006 | ralimetinib 0.001 | [2] -0.014 | [3] -0.013 | [4] -0.071 | [5] -0.051 | [6] 0.009 | [7] -0.02 | [8] -0.013

CARHSP1 (UniProt Q9Y2V2)
inactive: ibrutinib 0.053 | [1] 0.021 | ralimetinib -0.024 | [2] -0.032 | [3] 0.017 | [4] -0.029 | [5] 0.006 | [6] 0.014 | [7] 0.009 | [8] -0.008

CD2AP (UniProt Q9Y5K6)
inactive: ibrutinib -0.003 | [1] -0.007 | ralimetinib 0.015 | [2] -0.022 | [3] -0.005 | [4] 0.014 | [5] -0.012 | [6] 0.012 | [7] 0.012 | [8] -0.028

CCDC115 (UniProt Q96NT0)
inactive: ibrutinib 0.129 | [1] -0.024 | ralimetinib -0.037 | [2] -0.026 | [3] 0.058 | [4] 0 | [5] -0.023 | [6] 0.025 | [7] 0.048 | [8] -0.011

CCDC91 (UniProt Q7Z6B0)
inactive: ibrutinib -0.006 | [1] 0.002 | ralimetinib -0.014 | [2] -0.031 | [3] -0.043 | [4] -0.018 | [5] 0.027 | [6] -0.016 | [7] 0.018 | [8] -0.012

CASP2 (UniProt P42575)
inactive: ibrutinib 0.064 | [1] 0.07 | ralimetinib 0.028 | [2] -0.008 | [3] 0.007 | [4] 0.01 | [5] 0.009 | [6] -0.068 | [7] -0.049 | [8] -0.052
